# The whole screen tested about 53,000 sequences, of which about 3,700 (7%) were called active.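 How the source made its calls: active means gene knockdowns whose robust z-score for IL-1 alpha signal is at least 2 or at most -2, so actives lie on both sides; inactive means the rest.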 This is one part of the list.
# Experiment: Components of the Cytosolic LPS Sensing Pathway: Gene Identification via Genome-wide siRNA Screen;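 further: robust z of the log signal after scaling to non-targeting control siRNA wells of the plate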
# Conditions: RAW264.7 macrophages, IL-1a HTRF, actives lie on both sides, screened at 100 nM (by protocol), cells primed 5 h with Pam3CSK4 first
# Outline: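 IL-1a HTRF of supernatants after 24 hour LipidA transfection of Pam3CSK4-primed (5 hours) RAW264.7 cells, 48h post-siRNA transfection (100 nM). Scores: percent of plate negative-control median, then log-based robust z-score.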
row,Sequence,z-score
1,CGCAGCUUUCUAUACUGGCTT against Ngf,active: 2.41
2,GGAAAUUUCAGUCGUAGUATT against Mgat4c,inactive: 0.642
3,GGGAUUUCAAAUAAUUUGCTT against Nudt4,inactive: 0.817
4,GGAGAAACACUAUUUUGGATT against Ginm1,inactive: 0.404
5,GCAUCAGUAGAAACCCACATT against Tmigd3,inactive: 0.872
6,GGUCACUUUCAACCUCAUATT against Plin5,inactive: -0.989
7,GGUUCUACAGAUGUUUUCUTT against Tnfrsf22,active: 3.84
8,GGCAGCGCAAUGGAUUAGUTT against Chrng,inactive: -0.697
9,GGCCUUAAUUUAGUUGGUATT against Fbxo2,inactive: -0.934
10,GGACUUGGCUCCUUACCUGTT against Gcn1,inactive: -0.536
11,GGAAUCAGCUCUUUGAGCGTT against Capn5,inactive: -0.141
12,GGACAAUAAAAGGAAAGACTT against Brd7,inactive: -1.46
13,GGAGAGCUACGACUAUCUCTT against Vps29,inactive: -0.299
14,GGCAAACAUGAAGAGAAGCTT against Hspb8,inactive: 0.0665
15,GGAAGCUGAAGAAGACCUGTT against Reg1,inactive: -0.51
16,GGUGACAGGAAAGUUCUGUTT against Gsdmc2,active: 2.07
17,GCAUCUGUGAAAAGUGAACTT against Agtrap,inactive: 0.0647
18,GGCAGUACUCUUCCUCACUTT against Tmem198,inactive: -0.601
19,GCUAAUAAAGACGUAGCGUTT against Nup188,inactive: -0.9
20,GGUUGUGACAAUGUGAUCCTT against Coro1a,active: -2.22
21,GGCGCAUAAUGGGAGAAGCTT against Alox5ap,inactive: -0.283
22,GGCAAUAACAUCCAUAUGUTT against Smyd4,inactive: -0.628

# For convenience, some entries already given.
row,Sequence,z-score
13,GGAGAGCUACGACUAUCUCTT against Vps29,inactive: -0.299
14,GGCAAACAUGAAGAGAAGCTT against Hspb8,inactive: 0.0665
15,GGAAGCUGAAGAAGACCUGTT against Reg1,inactive: -0.51
16,GGUGACAGGAAAGUUCUGUTT against Gsdmc2,active: 2.07
17,GCAUCUGUGAAAAGUGAACTT against Agtrap,inactive: 0.0647

# Laid out differently: entries from further up
row | Sequence | z-score
6 | GGUCACUUUCAACCUCAUATT against Plin5 | inactive: -0.989
7 | GGUUCUACAGAUGUUUUCUTT against Tnfrsf22 | active: 3.84

# Further entries

row,Sequence,z-score
1,CGUAUGUGCCUUACAUGCUTT against Pomgnt2,inactive: 1.49
2,GGCAAUAUCCAGGAGACAGTT against Gkn2,inactive: 0.263
3,CCAUUCUGAUACUAAGCAATT against Tas2r134,inactive: -0.125
4,GGACAGAAAUGUUUUUUGGTT against Robo4,inactive: -0.271
5,GGCCAGAGUCUGGUUGAAUTT against Entpd2,inactive: 1.35
6,CCCAUCUCUAUCUUGGCCGTT against Chpf,inactive: -0.105
7,GCACAAGAUGUGAAGAUUATT against Tmem109,inactive: -0.639
8,GCUAACAAAGAGCCUGGCATT against Trim46,inactive: -0.831
9,GGAAGAAGGUACAUUUCAGTT against Ankrd42,inactive: 0.362
10,GGCUUCUUCUACUUUCAAGTT against Slc27a5,inactive: -0.554
11,GGACAUUAUUCCAUCUAAGTT against Heatr3,inactive: 0.994
12,CGAAUACAUCAUGUCAAAATT against Chek2,inactive: 0.929
13,CCGCCUUUCUGUGAGAUGCTT against Rbm11,inactive: -0.635
14,GGCCUGCAUGGAACAAAUGTT against Rxfp4,inactive: -0.404
15,GCGAAGUGCCUGCUAUUCUTT against Cc2d1b,inactive: 1.16
16,CCUAGGUUUGAAGACUCCCTT against Asphd2,active: -2.03
17,GCCGUGCAACACUUCUACATT against Esrrb,inactive: -0.471
18,GGAACAUGGAGAAUGUCUATT against Iqca,inactive: 0.733
19,GGGAAGAAGAGAUUCUGAUTT against Cep250,inactive: -1.53
20,CGCGUAUCUGACCAGGUCATT against Ermard,inactive: 0.889
21,GGAACUAUUUUUUACCCAATT against Dclre1a,inactive: -0.497
22,GGAGCUCACCACAUCCCUATT against Rundc3a,inactive: -0.206

row,Sequence,z-score
1,GGUCUUACAUCUGGUUUCCTT against Rapgef5,inactive: -0.181
2,GGUGUAUCAGAGGCAGAUUTT against AY358078,inactive: -0.719
3,GGGAAAUCAGUUUUACAAATT against Chl1,inactive: 0.265
4,GCUUGAGUUGGACCUUCACTT against Tchp,inactive: 0.547
5,GGCAUCCUGUUGAAACUGATT against Vezt,inactive: -0.962
6,GGAGGAGGAGACCAUCAUGTT against Dpf1,inactive: -0.988
7,GGAAAUGAGGAUGAGGUCCTT against Iyd,inactive: 2
8,CGGAUGUGGGCAUUCGUUATT against Fbxl7,inactive: 0.421
9,GCUGAAGUCUCUUCAAUGCTT against Trappc6b,inactive: -0.71
10,CCUCACCGUAGUGAUGUUGTT against Olfr257,inactive: 0.41
11,CGAUCAUCGGCAUGUAUACTT against Gm5134,inactive: 0.233
12,GGAAACAUUUGUCUUUUGCTT against Eif2b5,inactive: 0.428
13,GCGGUCUAAGUCCUUUAGCTT against Limd2,inactive: 1.09
14,GCUCACUGCUACAAAUACCTT against Prss2,inactive: -1.82
15,GGCUUAGUCAGUUCUCUCGTT against Sdf2,inactive: 0.447
16,CGGCCUCCAUGUUAAGAUATT against Csf2rb2,inactive: -0.249
17,CGUGUCAUACAGGUGUGGUTT against Lhx8,active: 2.11
18,CGGCAACUUUCUGAACAUCTT against Nfix,inactive: 0.204
19,CGUAGGUUCCUCUUACAUGTT against Alkbh8,inactive: 0.161
20,CCUAUUACUCUCAAGGUUCTT against Tti2,inactive: 0.245
21,GGAGAACAGCAGCCUUUGUTT against Ankrd13a,inactive: -0.0756
22,GCACAGAUUCCAUUAAAGATT against Rhbdl3,inactive: 0.168

row,Sequence,z-score
1,GGAGAGAUAUCUUUGGUGGTT against Slc27a4,inactive: 0.389
2,GGCUGAAAGUGAAGAAACGTT against Srp68,active: -2.11
3,GCUGCUCAAGUUGUGGUGATT against Sord,inactive: 1.56
4,GGAGGAAGUGAACAAAAUGTT against Afp,inactive: -0.701
5,GGGUAUACGGCAUUUCCUATT against Rad9b,inactive: -0.983
6,GGCAAUCUUAUACUUAUGCTT against Mmachc,inactive: 0.307
7,GGCCUGAUGGAAUUAUAGATT against Wdr31,inactive: -0.278
8,GCACGAAAUCAGCAAUGAATT against Tmc8,inactive: -1.08
9,GGUGGCAGACAUUUCAACATT against Ifi27,inactive: 1.54
10,GGUACAGAGAUCUAAGACUTT against Opn4,inactive: 1.17
11,UGAAGGCAAAUCACUCUUUTT against Olfr181,inactive: -0.042
12,CGAAAGGUUUAUCUGUUAGTT against Pwp1,inactive: -1.08
13,CCAGAGAUUCCAACUUAAATT against Tcp11l1,inactive: -0.398
14,GGCCAAUAAAGACUGGUUUTT against Rps15,inactive: 1.69
15,UAACUGGGCUCACGUUGACTT against Pou2f1,inactive: 0.47
16,CCAAUUCUCGAAUCAUUGCTT against Olfr561,inactive: 1.36
17,GGUCAAUUUUAGAGAGAUCTT against Eloc,inactive: 0.0886
18,GGCUAUUUGAGAACAGGCATT against Cxcl13,inactive: 0.00725
19,GGAGAUUCUUUCUUUGAUGTT against Cep43,inactive: -0.724
20,GGCUUUUCAGACCAAGCUUTT against 3830406C13Rik,inactive: 0.322
21,CGAGUUUCAUCGAACGUGUTT against Rnf43,inactive: 0.593
22,ACUGGGUUCUUAGUUGUAUTT against Olfr811,inactive: 0.234

row,Sequence,z-score
1,GGAGAAAGAAAGCAGUUUUTT against 2310067E19Rik,inactive: 1.55
2,GGACGUGACAGACAUUAUUTT against Htr5b,active: -2.81
3,GGAUGAAAAUGAGUGGAAATT against Cdv3,inactive: -1.51
4,CCAUUACAGGGUUAUUGCATT against Rnf8,inactive: -0.127
5,GCUUUCUACACCAUUCUUATT against Olfr165,inactive: 0.52
6,GCCCUUGAACGGAGAAUAGTT against Brk1,inactive: -1.59
7,GGAGCUCAACAGUGAGAACTT against Specc1l,inactive: 0.299
8,GGUGAUGUACAAAGCCAAUTT against Gab3,inactive: 1.27
9,UAUGGACGCAUUGGAGCCATT against Olfr348,inactive: 0.384
10,GCAGUUUCGUUCCUACUCGTT against Cdkn2aipnl,inactive: 0.796
11,GCAUUAUCCAGAACUUAGATT against Sema3f,inactive: 0.902
12,UUUCCAGUCUCGCCCGAUUTT against Elmo1,inactive: 1.37
13,CCUGCUACUAUUGAAGUUGTT against Gtf3c2,inactive: 0.25
14,ACUUCUCCAAGCUGAACCUTT against Mettl7a2,inactive: -0.187
15,GGAGGAUCAAAAACUUGUUTT against Pomk,inactive: -0.828
16,AGCCUAGCCUUUUUUGUACTT against Mt2,inactive: -0.142
17,GGCCUUUAGUUUAAUCCUATT against Ubxn2a,inactive: -0.233
18,GAGGUACCUCUACACAGAUTT against Fgf21,inactive: -0.261
19,GGCUUCAAAGCAUGACCAGTT against Ccr1,inactive: -0.528

# Source: PubChem BioAssay AID1508600 (Functional Genomics Laboratory (NCATS/FGL), 2020)
